Experimental data reported in paper PMC2739719.
Read-outs that look alike come from different tables or passages of the source. These are yes or no findings as the source states them, for the method shown. Binding seen in cells or lysates may run through a third protein. Some entries that bind do so weakly or less than the wild type. For part of these data: Where a sequence is shown, tags or fusion partners need not be part of it. One block for each molecule: values may come before it.

Chains of the proteins cited; added tags and fusions are not shown. Residues count along the entry.
UniProt P09874: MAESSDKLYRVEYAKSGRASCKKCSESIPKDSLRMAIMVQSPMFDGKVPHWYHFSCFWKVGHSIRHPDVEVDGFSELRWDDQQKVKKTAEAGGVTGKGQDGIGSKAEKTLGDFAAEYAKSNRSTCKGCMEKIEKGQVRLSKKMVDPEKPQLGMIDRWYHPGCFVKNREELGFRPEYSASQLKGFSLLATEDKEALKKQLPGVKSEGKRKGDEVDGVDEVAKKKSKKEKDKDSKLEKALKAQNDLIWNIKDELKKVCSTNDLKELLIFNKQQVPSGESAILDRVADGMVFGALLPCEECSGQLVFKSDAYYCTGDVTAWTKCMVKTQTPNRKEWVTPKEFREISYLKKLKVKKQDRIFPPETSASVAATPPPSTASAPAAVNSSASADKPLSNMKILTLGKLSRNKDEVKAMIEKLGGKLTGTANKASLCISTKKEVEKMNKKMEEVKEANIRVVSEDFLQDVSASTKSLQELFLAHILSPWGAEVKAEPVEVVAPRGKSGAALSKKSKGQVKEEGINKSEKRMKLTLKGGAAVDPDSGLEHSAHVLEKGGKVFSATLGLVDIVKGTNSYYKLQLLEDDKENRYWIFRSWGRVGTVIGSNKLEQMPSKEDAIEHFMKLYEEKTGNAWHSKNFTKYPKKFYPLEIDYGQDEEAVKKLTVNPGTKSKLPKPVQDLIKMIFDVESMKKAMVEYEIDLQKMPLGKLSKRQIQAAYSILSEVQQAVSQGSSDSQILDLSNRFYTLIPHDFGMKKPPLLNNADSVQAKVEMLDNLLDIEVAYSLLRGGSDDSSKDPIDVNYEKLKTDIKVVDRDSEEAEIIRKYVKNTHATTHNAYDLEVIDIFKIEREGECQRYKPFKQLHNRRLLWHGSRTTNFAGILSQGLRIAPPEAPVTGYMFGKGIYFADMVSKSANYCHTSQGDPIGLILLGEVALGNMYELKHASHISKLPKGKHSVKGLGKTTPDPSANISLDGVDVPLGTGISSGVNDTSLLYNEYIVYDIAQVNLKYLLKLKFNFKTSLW
UniProt Q92466: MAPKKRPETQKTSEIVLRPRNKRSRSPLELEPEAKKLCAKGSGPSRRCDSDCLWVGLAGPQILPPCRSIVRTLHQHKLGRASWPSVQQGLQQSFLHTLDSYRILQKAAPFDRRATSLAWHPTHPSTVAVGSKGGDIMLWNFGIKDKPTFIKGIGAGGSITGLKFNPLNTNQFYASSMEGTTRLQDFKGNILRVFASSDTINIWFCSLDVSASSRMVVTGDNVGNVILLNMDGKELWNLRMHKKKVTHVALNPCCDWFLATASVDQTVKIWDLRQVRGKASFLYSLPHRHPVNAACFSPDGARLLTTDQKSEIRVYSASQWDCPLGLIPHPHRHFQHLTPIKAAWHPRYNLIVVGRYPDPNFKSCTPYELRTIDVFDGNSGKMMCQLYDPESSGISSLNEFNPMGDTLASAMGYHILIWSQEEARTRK
UniProt Q09028: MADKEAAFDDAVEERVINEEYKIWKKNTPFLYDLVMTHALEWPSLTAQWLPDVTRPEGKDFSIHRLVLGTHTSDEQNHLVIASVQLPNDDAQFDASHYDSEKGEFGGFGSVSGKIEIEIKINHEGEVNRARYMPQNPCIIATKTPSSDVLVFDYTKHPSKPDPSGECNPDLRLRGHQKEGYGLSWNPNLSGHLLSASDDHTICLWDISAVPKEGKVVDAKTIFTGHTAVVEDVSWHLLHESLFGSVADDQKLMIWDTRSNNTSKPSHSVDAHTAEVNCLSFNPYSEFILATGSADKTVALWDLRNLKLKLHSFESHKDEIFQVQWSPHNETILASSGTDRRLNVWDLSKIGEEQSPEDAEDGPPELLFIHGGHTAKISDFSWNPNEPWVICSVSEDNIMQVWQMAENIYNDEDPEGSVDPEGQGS
UniProt Q16576: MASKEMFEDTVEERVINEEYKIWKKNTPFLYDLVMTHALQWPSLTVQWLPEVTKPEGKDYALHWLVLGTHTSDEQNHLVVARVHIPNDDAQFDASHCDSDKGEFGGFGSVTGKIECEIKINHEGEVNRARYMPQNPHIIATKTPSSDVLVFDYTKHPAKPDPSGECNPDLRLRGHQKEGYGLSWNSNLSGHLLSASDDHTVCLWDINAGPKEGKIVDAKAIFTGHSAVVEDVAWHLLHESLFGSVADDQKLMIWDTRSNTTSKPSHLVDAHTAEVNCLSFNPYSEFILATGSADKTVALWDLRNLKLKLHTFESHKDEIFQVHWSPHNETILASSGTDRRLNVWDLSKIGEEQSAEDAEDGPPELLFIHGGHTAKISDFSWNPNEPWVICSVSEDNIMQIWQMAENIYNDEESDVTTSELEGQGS
UniProt P16403: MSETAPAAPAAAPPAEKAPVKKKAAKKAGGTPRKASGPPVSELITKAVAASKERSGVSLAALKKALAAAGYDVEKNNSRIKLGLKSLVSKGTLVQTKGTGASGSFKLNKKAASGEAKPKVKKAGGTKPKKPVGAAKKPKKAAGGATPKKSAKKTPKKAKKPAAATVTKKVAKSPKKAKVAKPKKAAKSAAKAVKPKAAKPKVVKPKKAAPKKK
UniProt Q96KQ7: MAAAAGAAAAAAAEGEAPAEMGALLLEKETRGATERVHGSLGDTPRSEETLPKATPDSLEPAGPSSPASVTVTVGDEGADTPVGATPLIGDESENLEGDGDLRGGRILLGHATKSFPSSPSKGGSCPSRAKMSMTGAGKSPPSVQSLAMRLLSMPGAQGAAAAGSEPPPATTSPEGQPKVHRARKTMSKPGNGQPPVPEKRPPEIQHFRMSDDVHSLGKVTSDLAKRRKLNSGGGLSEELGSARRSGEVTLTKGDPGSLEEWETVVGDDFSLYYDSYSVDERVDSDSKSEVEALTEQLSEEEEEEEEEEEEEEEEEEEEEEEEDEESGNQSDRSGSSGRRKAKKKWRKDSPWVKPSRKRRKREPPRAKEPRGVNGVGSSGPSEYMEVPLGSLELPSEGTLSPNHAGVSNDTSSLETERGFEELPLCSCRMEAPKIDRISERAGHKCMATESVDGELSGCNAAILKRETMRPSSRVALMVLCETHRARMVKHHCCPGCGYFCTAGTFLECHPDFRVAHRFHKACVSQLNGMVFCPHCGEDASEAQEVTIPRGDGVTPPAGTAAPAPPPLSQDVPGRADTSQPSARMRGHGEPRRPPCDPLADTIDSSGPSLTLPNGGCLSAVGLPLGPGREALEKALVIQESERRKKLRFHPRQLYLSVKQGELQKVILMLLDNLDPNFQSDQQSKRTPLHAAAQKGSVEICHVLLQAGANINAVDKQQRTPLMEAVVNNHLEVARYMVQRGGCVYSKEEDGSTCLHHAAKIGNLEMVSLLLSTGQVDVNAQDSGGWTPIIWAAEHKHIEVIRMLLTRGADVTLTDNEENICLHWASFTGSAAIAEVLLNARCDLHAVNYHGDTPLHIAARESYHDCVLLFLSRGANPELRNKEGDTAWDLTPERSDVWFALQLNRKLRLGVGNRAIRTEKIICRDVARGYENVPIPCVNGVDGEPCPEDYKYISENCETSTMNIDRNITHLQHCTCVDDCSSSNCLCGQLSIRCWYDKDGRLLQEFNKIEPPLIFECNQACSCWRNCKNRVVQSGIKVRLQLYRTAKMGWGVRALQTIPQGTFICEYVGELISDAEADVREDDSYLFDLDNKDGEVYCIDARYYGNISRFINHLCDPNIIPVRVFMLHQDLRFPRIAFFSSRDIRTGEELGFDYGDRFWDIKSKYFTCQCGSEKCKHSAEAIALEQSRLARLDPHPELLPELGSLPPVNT
UniProt Q01105: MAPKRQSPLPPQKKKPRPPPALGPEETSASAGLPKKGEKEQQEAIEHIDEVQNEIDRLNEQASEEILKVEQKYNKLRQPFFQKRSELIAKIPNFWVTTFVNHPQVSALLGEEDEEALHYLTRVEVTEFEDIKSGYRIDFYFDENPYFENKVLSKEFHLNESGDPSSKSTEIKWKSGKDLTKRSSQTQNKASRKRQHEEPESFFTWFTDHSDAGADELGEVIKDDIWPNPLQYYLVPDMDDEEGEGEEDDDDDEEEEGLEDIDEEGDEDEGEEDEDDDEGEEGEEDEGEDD
UniProt Q92785: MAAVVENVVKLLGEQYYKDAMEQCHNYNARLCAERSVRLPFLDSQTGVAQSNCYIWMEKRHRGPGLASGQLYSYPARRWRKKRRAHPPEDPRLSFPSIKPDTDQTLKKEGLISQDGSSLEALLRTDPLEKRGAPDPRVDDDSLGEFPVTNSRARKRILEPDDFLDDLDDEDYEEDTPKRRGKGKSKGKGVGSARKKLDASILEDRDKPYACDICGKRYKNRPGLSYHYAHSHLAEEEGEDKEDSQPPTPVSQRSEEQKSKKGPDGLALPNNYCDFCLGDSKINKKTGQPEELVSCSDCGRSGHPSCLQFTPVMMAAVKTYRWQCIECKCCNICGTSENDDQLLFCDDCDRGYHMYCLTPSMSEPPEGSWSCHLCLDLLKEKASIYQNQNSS
UniProt Q16531: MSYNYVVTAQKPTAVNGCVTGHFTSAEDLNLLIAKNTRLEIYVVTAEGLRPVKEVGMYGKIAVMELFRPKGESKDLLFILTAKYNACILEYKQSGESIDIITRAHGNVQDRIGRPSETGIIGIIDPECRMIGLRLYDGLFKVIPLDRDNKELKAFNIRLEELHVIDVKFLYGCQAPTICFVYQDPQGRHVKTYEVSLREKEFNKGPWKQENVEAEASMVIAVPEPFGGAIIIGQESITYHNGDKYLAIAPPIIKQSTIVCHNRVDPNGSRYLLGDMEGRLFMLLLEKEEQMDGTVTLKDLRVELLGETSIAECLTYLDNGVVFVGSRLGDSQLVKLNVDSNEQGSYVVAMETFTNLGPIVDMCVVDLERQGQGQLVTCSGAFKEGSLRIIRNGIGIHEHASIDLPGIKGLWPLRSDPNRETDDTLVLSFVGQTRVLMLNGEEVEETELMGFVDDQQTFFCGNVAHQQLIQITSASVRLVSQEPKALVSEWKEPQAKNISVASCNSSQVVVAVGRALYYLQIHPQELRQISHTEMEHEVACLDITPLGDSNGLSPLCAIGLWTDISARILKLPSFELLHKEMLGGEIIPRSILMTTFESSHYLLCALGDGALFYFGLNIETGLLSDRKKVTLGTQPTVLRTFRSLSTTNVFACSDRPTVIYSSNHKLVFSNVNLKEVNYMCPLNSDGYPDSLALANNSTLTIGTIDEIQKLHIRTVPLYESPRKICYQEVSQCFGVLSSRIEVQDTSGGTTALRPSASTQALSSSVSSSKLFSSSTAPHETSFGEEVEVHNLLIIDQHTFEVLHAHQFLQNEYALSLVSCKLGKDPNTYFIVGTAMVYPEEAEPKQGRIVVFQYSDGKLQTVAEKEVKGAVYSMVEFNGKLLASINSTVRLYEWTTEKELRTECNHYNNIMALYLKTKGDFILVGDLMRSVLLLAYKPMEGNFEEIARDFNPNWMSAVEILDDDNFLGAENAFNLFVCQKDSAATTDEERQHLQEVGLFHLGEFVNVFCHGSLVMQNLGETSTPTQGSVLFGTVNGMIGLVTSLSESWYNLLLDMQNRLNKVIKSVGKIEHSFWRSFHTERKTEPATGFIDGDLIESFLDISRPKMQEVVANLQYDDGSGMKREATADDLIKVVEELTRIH
UniProt P02545, residues 1-646: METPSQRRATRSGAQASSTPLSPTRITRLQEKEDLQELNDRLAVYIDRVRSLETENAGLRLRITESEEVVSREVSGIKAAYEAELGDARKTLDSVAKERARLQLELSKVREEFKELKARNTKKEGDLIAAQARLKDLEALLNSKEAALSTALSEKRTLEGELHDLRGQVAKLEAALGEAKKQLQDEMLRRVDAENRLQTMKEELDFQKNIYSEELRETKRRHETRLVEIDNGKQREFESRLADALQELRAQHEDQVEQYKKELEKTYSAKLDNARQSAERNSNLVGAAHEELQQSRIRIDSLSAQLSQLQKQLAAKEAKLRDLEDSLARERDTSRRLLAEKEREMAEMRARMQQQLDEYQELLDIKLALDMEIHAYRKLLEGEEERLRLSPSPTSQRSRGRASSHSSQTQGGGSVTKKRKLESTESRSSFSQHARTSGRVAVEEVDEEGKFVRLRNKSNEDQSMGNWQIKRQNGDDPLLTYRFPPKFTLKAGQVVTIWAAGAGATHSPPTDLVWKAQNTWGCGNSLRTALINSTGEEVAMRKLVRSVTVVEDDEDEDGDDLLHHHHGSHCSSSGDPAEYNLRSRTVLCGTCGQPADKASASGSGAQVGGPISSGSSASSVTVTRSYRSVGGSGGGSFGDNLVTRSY

Experiments:
FLAG-BAF = target: T1, FLAG-BAF (UniProt O75531); experiment: co-IP; stable tetracycline-inducible FLAG-BAF HEK293 cells; FLAG-BAF precipitated, endogenous partners detected; data not shown
T1 sequence: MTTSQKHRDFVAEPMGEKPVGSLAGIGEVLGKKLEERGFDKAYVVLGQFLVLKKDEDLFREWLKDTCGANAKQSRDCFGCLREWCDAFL

FLAG-PARP1 (human) [1] = target: FLAG-PARP1 (human) (UniProt P09874); experiment: co-IP; HeLa transiently expressing FLAG-tagged protein (24 hrs), whole cell lysates, Flag-M2 agarose beads 4 hrs 4°C, washed with IP buffer (300 mM NaCl, 0.3% Triton X-100), eluted with 2X-SB or Flag-peptide; blots for endogenous proteins; some cells UV-irradiated (20 J/m^2) and left to recover
FLAG-DDB2 [2] = target: FLAG-DDB2 (UniProt Q92466); experiment: as above
GFP-RBBP4 (human) = GFP-RBBP4 (human) (UniProt Q09028); experiment: co-IP; HeLa transiently expressing GFP-tagged protein (24 hrs), untreated or UV-irradiated with 1 hr recovery; whole cell lysates, GFP antibody and GammaBind G sepharose; blots for endogenous BAF and emerin
GFP-RBBP7 (human) = GFP-RBBP7 (human) (UniProt Q16576); experiment: as above
GFP-H1.2 = GFP-H1.2 (UniProt P16403); experiment: as above
G9a, FLAG- or GFP-tagged = G9a, FLAG- or GFP-tagged (UniProt Q96KQ7); experiment: co-IP; tagged G9a and SET/I2PP2A transiently expressed in HeLa, blot for endogenous BAF; ascribed to a manuscript in preparation
[3] = target: SET/I2PP2A, FLAG- or GFP-tagged (UniProt Q01105); experiment: as above
FLAG-Requiem (human) = FLAG-Requiem (human) (UniProt Q92785); experiment: co-IP; HeLa transiently expressing FLAG-tagged protein (24 hrs), whole cell lysates, Flag-M2 agarose beads 4 hrs 4°C, washed with IP buffer (300 mM NaCl, 0.3% Triton X-100), eluted with 2X-SB or Flag-peptide; blots for endogenous proteins; some cells UV-irradiated (20 J/m^2) and left to recover
FLAG-CUL4A = FLAG-CUL4A (UniProt Q13619); experiment: as above
FLAG-PARP1 (human) [4] = target: FLAG-PARP1 (human) (UniProt P09874); experiment: as above; remark: listed apart in the source
FLAG-DDB2 [5] = target: FLAG-DDB2 (UniProt Q92466); experiment: as above; remark: listed apart in the source
FLAG-PARP1 (human) [6] = target: FLAG-PARP1 (human) (UniProt P09874); experiment: co-IP; FLAG-PARP1 from HeLa under low stringency (150 mM NaCl, 0.15% TX-100); data not shown

binding (FLAG-BAF): binds
Molecule: endogenous DDB1 of HEK293 cells (from UniProt Q16531 1-1140)

binding (FLAG-PARP1 (human) [1]): binds
Molecule: Lamin A/C (from UniProt P02545 1-646)

binding (FLAG-DDB2 [2]): binds
Molecule: Damage-specific DNA binding protein 1 (from UniProt Q16531 1-1140)

binding (FLAG-BAF): binds
Molecule: endogenous PARP1 of HEK293 cells (from UniProt P09874 1-1014)

binding (FLAG-BAF): binds
Molecule: endogenous RBBP4 of HEK293 cells (from UniProt Q09028 1-425)

binding (GFP-RBBP4 (human)): binds | binding (GFP-RBBP7 (human)): binds weakly | binding (GFP-H1.2): binds | binding (G9a, FLAG- or GFP-tagged): binds | binding [3]: binds | binding (FLAG-Requiem (human)): binds | binding (FLAG-CUL4A): binds | binding (FLAG-PARP1 (human) [4]): binds | binding (FLAG-DDB2 [5]): binds | binding (FLAG-PARP1 (human) [6]): binds
B1: endogenous Barrier-to-autointegration factor (BAF) (protein, UniProt O75531 1-89)
chain: T1 sequence
